# Reference: article PMC11449006
# These are yes or no findings as the source states them, for the method shown. In cells and extracts the contact can be indirect. Here binding means that the protein was enriched with, or labelled near, the bait; the list need not be complete. A no says only that the protein was not detected with the bait.
# Target: CEPA1-FLAG (Arabidopsis thaliana)
# Experiment: affinity purification with mass spectrometry; anti-FLAG M2 magnetic beads; thylakoid membranes of cepa1-3-C1 (CEPA1-FLAG) and WT (control) solubilised in 1% (w/v) β-DM in 25BTH20G buffer pH 7.0, 2 h at 4 °C; eluates by LC-MS/MS, MaxLFQ; enriched if at least 2-fold over the WT IP with P < 0.05, three replicates
row,Binder,binding
1,"PHOTOSYSTEM I ASSEMBLY3 (PSA3) (protein, UniProt Q9M3C6 46-277) AYIEKPNSFSTFANKVIGSLPVIGLLARIISDEGGVGRDLVDFAEFRKRVGNKCTPDDSRAFYEFQQRRGKAGEPLYVLLCCWVAAVGAGLLKSEEILEGVTRVSISNDLEFEEQNFIALMTEARQRRAKLNIDAPTIPMELRVEKALEGIYACCFRRGLIEEEDEKLLKVMLIAVFPSVEKSEIERIIKEKATRVEEGGEEENVMAKRLPKEAIQMQMKDLEFLQQQNIES",binds
2,"TRANSLOCASE OF THE OUTER MITOCHONDRIAL MEMBRANE 40 (TOM40) (protein, UniProt Q9LHE5 1-309) MADLLPPLTAAQVDAKTKVDEKVDYSNLPSPVPYEELHREALMSLKSDNFEGLRFDFTRALNQKFSLSHSVMMGPTEVPAQSPETTIKIPTAHYEFGANYYDPKLLLIGRVMTDGRLNARLKADLTDKLVVKANALITNEEHMSQAMFNFDYMGSDYRAQLQLGQSALIGATYIQSVTNHLSLGGEIFWAGVPRKSGIGYAARYETDKMVASGQVASTGAVVMNYVQKISDKVSLATDFMYNYFSRDVTASVGYDYMLRQARVRGKIDSNGVASALLEERLSMGLNFLLSAELDHKKKDYKFGFGLTVG",no binding
3,"RIBOSOMAL PROTEIN L12-C (RPL12-C) (protein, UniProt P36212 55-187) AVEAPEKIEKIGSEISSLTLEEARILVDYLQDKFGVSPLSLAPAAAAVAAPADGGAAAVVEEQTEFDVVINEVPSSSRIAVIKAVRALTSLALKEAKELIEGLPKKFKEGITKDEAEEAKKTLEEAGAKVSIA",no binding
